Laboratory results as given in PMC10603047.
No constants are given. Whether binding was seen depends on the method and setting. In cells and extracts the contact can be indirect. Some results given as binding are weak or reduced against the parent protein; the word gives no strength.

Molecular target: T1, Trim21 (mouse (endogenous in MC3T3-E1)) (UniProt Q62191)
T1 sequence: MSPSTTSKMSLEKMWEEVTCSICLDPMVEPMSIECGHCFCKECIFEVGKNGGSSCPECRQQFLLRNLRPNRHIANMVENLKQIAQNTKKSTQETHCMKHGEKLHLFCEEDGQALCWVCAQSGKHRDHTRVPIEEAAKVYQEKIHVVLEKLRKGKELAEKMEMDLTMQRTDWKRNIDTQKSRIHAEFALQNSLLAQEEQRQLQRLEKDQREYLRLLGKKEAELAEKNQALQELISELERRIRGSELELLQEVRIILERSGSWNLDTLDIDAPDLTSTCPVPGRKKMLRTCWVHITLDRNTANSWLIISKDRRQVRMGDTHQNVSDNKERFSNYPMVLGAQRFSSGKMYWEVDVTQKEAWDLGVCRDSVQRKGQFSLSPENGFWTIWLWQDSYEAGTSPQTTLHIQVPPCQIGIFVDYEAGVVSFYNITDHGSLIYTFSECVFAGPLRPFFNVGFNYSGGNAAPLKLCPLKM
Assay: co-IP; endogenous proteins of MC3T3-E1 cells with or without osteogenic induction; lysed by sonication in Western and IP Lysis Buffer; antibodies against YAP1, BCL9, Trim21 or control IgG overnight at 4 °C, protein A agarose, five washes, immunoblotting

binding: binds
B1: BCL9 (protein, UniProt Q9D219 1-1425)
chain: MHPSNPKVRSSPSGNTQSSPKSKQEVMVRPPTVMSPSGNPQLDSKFSNQGKPGGSASQSQPSPCDSKSGGHTPKALPGPGGSMGLKNGAGNGAKGKGKRERSISADSFDQRDPGTPNDDSDIKECNSADHIKSQESQHTPHSMTPSTATAPRSSTPSHGQTPAPEPISAQKTPAKVVYVFSTEMANKAAEAVLKGQVETIVSFHIQNISNSKSERSTAPLNTQIPTLRNDPKPLPQQPPAPANQDQNSSQNARLQPTPPIQAPAPKPTAAPRPLDRESPGVENKLIPPVGSPGSSTPLPPDGTGPNSTPNNRAVTPVSQGSNSSSADPKAPPPPPVSGGEPPTLGENPDGLSQEQLEHRERSLQTLRDIQRMLFPDEKEFTAGQTGGPQQNTGVLDGPQKKPDGPIQAMMSQSQSLGKGPGPRTDVGAPFGPQGHRDVPFSPDEMVPPNMSSQSGPIGPDHLDHMTPEQIAWLKLQQEFYEEKRRKQEQVVVQQCSLQDMMVHQHGPRGVVRGPPPPYQMAPGEGWAPGAEPFPDGINISHSLPPRGMAPHPNMPGSQMRLPGFAGMINSEMEGPNVPNPASRPGLSGVSWPDDVPKIPDGRNFPPGQGVFSGPGRGERFPNPQGLSEEMFQQQLAEKQLALPPGMSMEGIRPGMEMNRMIPGSQRHMEPGSNPIFPRIPVEGPLSPSRGDFPKGMPPQIGPGRELEFGMVPGGMKGEVNLNVNMGSSSQMIPQKMREAGAGPEEMMKLRPGSSEMLPAQQKMVPLPFGEHPQQEYGVGPRPFLPMSQGPGSNSGLRNLREPIGPDQRTNSRLSHMPPLPLNPSSNPTSLSTAPPVQRGLGRKPLDISVAGSQVHSPGINPLKSPTMHQVQSPMLGSPSGNLKSPQTPSQLAGMLAGPAAAASIKSPPVLGSAAASPVHLKSPSLPAPSPGWTSSPKPPLQSPGIPPNHKAPLTMASPAMLGSVESGGPPPPTASQPASVNIPGSLPSSTPYPMPPEPTLSQNPLSIMMSRMSKFAMPSSTPLYHDAIKTVASSDDDSPPARSPNLPSMNSMPGMGINTQNPRISGPNPVVPMPTLSPMGMTQPLSHSNQMPSPNAMGPSIPPHGVPMGPGLMSHNPIMGHGSQEPPMVPQGRMGFPQGFPPVQSPPQQVPFPHNGPTGGQGNFPGGIGFPGEGPLGRPSNLPQSSADPALCKPGGPGAPDSFTVLGNSMPSVFTDPDLQEVIRPGATGIPEFDLSRIIPSEKPSQTLQYFPRGEVPGRKQPQGPGPGFSHMQGMMSDQAPRMGLALPGMGGPGPVGTPDIPLGTSPSMPGHNPMRPPAFLQQGMMGPHHRMMSPAQSTVPGPATLMTNPAAAVGMIPGKDRGPAGLYTHPGPVGSPGMMMSMQGMMGPQQNIMIPPQMRPRGMAADVGMGGFSQGPGNPGNMMF
